Test system: S. pombe culture
Assay: Succinate capping of alpha-tocotrienol hydroquinone in yeast (Example 3), LCMS/MS
Assay type: cell-based

Row | Structure (SMILES) | p-dHQ/(p-dHQ+p-Q) ratio, based on [bis-succinate]/([bis-succinate]+[quinone]) (S. pombe cultures after 16 hrs, treated with alpha-tocotrienol quinone (1 μM) 5 hours before harvesting, succinic anhydride capping, normalized for OD) | Unesterified hydroquinone (p-HQ) relative to bis-succinate (all samples, S. pombe treated with alpha-tocotrienol quinone (1 μM) for 5 hours, after succinic anhydride capping)
1 | CC(C)=CCC/C(C)=C/CC/C(C)=C/CC[C@@](C)(O)CCC1=C(C)C(=O)C(C)=C(C)C1=O [alpha-tocotrienol quinone] | 0.557+/−0.0012 | –
2 | CC(C)=CCC/C(C)=C/CC/C(C)=C/CCC(C)(O)CCc1c(C)c(O)c(C)c(C)c1O (stereo not drawn) [Unesterified hydroquinone, alpha-tocotrienol hydroquinone] | – | less than 1%
